Source: paper PMC1156946
These are yes or no findings as the source states them, for the method shown. For some assays here: Binding seen in cells or lysates may run through a third protein. Some results given as binding are weak or reduced against the parent protein; the word gives no strength.

Chains of the proteins cited; added tags and fusions are not shown. Residues count along the entry.
UniProt P55211, residues 1-111: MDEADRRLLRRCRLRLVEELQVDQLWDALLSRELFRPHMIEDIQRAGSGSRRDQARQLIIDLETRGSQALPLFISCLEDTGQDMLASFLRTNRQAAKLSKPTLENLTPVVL
UniProt P78560, residues 9-95: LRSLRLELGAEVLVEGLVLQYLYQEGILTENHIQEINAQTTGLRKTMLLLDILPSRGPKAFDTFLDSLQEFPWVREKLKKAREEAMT
UniProt Q9ULZ3, residues 92-195: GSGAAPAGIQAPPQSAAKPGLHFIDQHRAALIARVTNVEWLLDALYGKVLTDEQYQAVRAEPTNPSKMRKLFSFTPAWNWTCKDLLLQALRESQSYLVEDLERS
UniProt O14727, residues 1-108: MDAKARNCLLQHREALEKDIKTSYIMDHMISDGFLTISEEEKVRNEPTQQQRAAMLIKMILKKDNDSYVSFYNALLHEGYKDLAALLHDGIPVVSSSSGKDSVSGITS
UniProt Q9Y2G2, residues 447-537: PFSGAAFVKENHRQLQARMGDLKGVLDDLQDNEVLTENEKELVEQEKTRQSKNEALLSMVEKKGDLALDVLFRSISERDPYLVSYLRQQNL

What was measured:
[1] = biological target: T1, BCL10 (cellular homolog of the equine herpesvirus-2 E10 gene containing an amino-terminal caspase recruitment domain) CARD domain (residues 1-104) (human) (UniProt O95999); assay: native gel or EMSA; native binding assay: equal amounts of purified His-tagged proteins incubated overnight at 4°C in 50 mM Tris, 100 mM NaCl, pH 8.0; continuous non-denaturing 10% PAGE, Coomassie blue staining; both purified
T1 sequence: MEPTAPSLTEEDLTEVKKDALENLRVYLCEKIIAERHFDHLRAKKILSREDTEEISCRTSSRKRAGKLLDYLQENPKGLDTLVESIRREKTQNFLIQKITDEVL

[2] = biological target: T1, BCL10 (cellular homolog of the equine herpesvirus-2 E10 gene containing an amino-terminal caspase recruitment domain) CARD domain (residues 1-104) (human); assay: pull-down; co-expression in E. coli BL21(DE3) of a pET-28b (His) and a pGEX-2T (GST) construct; lysate in 50 mM Tris pH 8.0, 100 mM NaCl; Ni-NTA capture of the His-tagged protein, imidazole elution, SDS-PAGE with silver stain; both directions tested
[3] = biological target: caspase-9 CARD domain (residues 1-111) (human) (UniProt P55211); assay: native gel or EMSA; induced denaturation-renaturation: equal amounts of purified proteins dialysed together against 8 M urea buffer, then renaturation buffer (2 M urea, 2 mM MgCl2, 5% glycerol) and binding buffer; continuous non-denaturing 10% PAGE, Coomassie blue staining; both purified
[4] = biological target: caspase-9 CARD domain (residues 1-111) (human) (UniProt P55211); assay: pull-down; co-expression in E. coli BL21(DE3) of a pET-28b (His) and a pGEX-2T (GST) construct; lysate in 50 mM Tris pH 8.0, 100 mM NaCl; Ni-NTA capture of the His-tagged protein, imidazole elution, SDS-PAGE with silver stain; both directions tested
[5] = biological target: T2, NAC (apoptotic protein containing a nucleotide binding domain and a CARD domain) CARD domain (residues 1373-1473) (human) (UniProt Q9C000); assay: co-IP; equal amounts of E. coli recombinant proteins incubated in 50 uL rabbit reticulocyte lysate (Promega) at 4°C for 1 hour; immunoprecipitation with anti-6xHis, western blot with anti-GST
T2 sequence: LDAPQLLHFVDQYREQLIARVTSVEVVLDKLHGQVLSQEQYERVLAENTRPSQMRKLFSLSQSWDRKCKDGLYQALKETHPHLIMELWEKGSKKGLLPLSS

[6] = biological target: Receptor-Interacting Protein (RIP)-Associated protein with a Death domain (RAIDD) CARD domain (residues 9-95) (human) (UniProt P78560); assay: co-IP; lysates of co-expressing E. coli immunoprecipitated with anti-6xHis or anti-GST antibody; western blot with anti-GST and anti-6xHis
[7] = biological target: Receptor-Interacting Protein (RIP)-Associated protein with a Death domain (RAIDD) CARD domain (residues 9-95) (human) (UniProt P78560); assay: pull-down; co-expression in E. coli BL21(DE3) of a pET-28b (His) and a pGEX-2T (GST) construct; lysate in 50 mM Tris pH 8.0, 100 mM NaCl; Ni-NTA capture of the His-tagged protein, imidazole elution, SDS-PAGE with silver stain; both directions tested
[8] = biological target: T2, NAC (apoptotic protein containing a nucleotide binding domain and a CARD domain) CARD domain (residues 1373-1473) (human); assay: as above
[9] = biological target: Receptor-Interacting Protein (RIP)-Associated protein with a Death domain (RAIDD) CARD domain (residues 9-95) (human) (UniProt P78560); assay: co-IP; equal amounts of E. coli recombinant proteins incubated in 50 uL rabbit reticulocyte lysate (Promega) at 4°C for 1 hour; immunoprecipitation with anti-6xHis, western blot with anti-GST
[10] = biological target: CARD9 CARD domain (residues 14-100) (human) (UniProt Q9H257); assay: co-IP; lysates of co-expressing E. coli immunoprecipitated with anti-6xHis or anti-GST antibody; western blot with anti-GST and anti-6xHis
[11] = biological target: CARD9 CARD domain (residues 14-100) (human) (UniProt Q9H257); assay: pull-down; co-expression in E. coli BL21(DE3) of a pET-28b (His) and a pGEX-2T (GST) construct; lysate in 50 mM Tris pH 8.0, 100 mM NaCl; Ni-NTA capture of the His-tagged protein, imidazole elution, SDS-PAGE with silver stain; both directions tested
[12] = biological target: Apoptosis-associated Speck-like protein containing a CARD (ASC) CARD domain (residues 92-195) (human) (UniProt Q9ULZ3); assay: co-IP; equal amounts of E. coli recombinant proteins incubated in 50 uL rabbit reticulocyte lysate (Promega) at 4°C for 1 hour; immunoprecipitation with anti-6xHis, western blot with anti-GST
[13] = biological target: Apoptosis-associated Speck-like protein containing a CARD (ASC) CARD domain (residues 92-195) (human) (UniProt Q9ULZ3); assay: pull-down; co-expression in E. coli BL21(DE3) of a pET-28b (His) and a pGEX-2T (GST) construct; lysate in 50 mM Tris pH 8.0, 100 mM NaCl; Ni-NTA capture of the His-tagged protein, imidazole elution, SDS-PAGE with silver stain; both directions tested
[14] = biological target: Apoptosis-associated Speck-like protein containing a CARD (ASC) CARD domain (residues 92-195) (human) (UniProt Q9ULZ3); assay: native gel or EMSA; native binding assay: equal amounts of purified His-tagged proteins incubated overnight at 4°C in 50 mM Tris, 100 mM NaCl, pH 8.0; continuous non-denaturing 10% PAGE, Coomassie blue staining; both purified
[15] = biological target: Apoptotic Protein Activating Factor-1 (Apaf-1) CARD domain (residues 1-108) (human) (UniProt O14727); assay: native gel or EMSA; induced denaturation-renaturation: equal amounts of purified proteins dialysed together against 8 M urea buffer, then renaturation buffer (2 M urea, 2 mM MgCl2, 5% glycerol) and binding buffer; continuous non-denaturing 10% PAGE, Coomassie blue staining; both purified
[16] = biological target: T3, CLAN (apoptotic protein containing a CARD domain, a Leucine rich repeat domain and a NACHT domain) CARD domain (residues 1-87) (human) (UniProt Q9NPP4); assay: as above
T3 sequence: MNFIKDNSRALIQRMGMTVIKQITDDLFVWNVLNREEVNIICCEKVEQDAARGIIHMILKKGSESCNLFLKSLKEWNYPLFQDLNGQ

[17] = biological target: T2, NAC (apoptotic protein containing a nucleotide binding domain and a CARD domain) CARD domain (residues 1373-1473) (human); assay: co-IP; lysates of co-expressing E. coli immunoprecipitated with anti-6xHis or anti-GST antibody; western blot with anti-GST and anti-6xHis
[18] = biological target: Apoptotic Protein Activating Factor-1 (Apaf-1) CARD domain (residues 1-108) (human) (UniProt O14727); assay: pull-down; co-expression in E. coli BL21(DE3) of a pET-28b (His) and a pGEX-2T (GST) construct; lysate in 50 mM Tris pH 8.0, 100 mM NaCl; Ni-NTA capture of the His-tagged protein, imidazole elution, SDS-PAGE with silver stain; both directions tested
[19] = biological target: T3, CLAN (apoptotic protein containing a CARD domain, a Leucine rich repeat domain and a NACHT domain) CARD domain (residues 1-87) (human); assay: as above

Measured: binding

Apoptosis-associated Speck-like protein containing a CARD (ASC) CARD domain (residues 92-195) (from UniProt Q9ULZ3 92-195) (domain or fragment)
binds: [1] | [2]

Tumor Up-regulated CARD-containing Antagonist of caspase-Nine (TUCAN) CARD domain (residues 341-431) (from UniProt Q9Y2G2-1 341-431) (domain or fragment)
binds: [3] | [4]

Receptor-Interacting Protein (RIP)-Associated protein with a Death domain (RAIDD) CARD domain (residues 9-95) (from UniProt P78560 9-95) (domain or fragment)
binds: [5] | [6] | [7] | [8]

B1: CARD9 CARD domain (residues 14-100) (domain or fragment, UniProt Q9H257 14-100)
chain: LEGFRVTLTSVIDPSRITPYLRQCKVLNPDDEEQVLSDPNLVIRKRKVGVLLDILQRTGHKGYVAFLESLELYYPQLYKKVTGKEPA
binds: [9] | [10] | [11] | [7]

B2: ICEBERG (caspase-1 inhibitor) CARD domain (residues 1-90) (domain or fragment, UniProt P57730 1-90)
chain: MADQLLRKKRRIFIHSVGAGTINALLDCLLEDEVISQEDMNKVRDENDTVMDKARVLIDLVTGKGPKSCCKFIKHLCEEDPQLASKMGLH
binds: [12] | [13]

B3: CLAN (apoptotic protein containing a CARD domain, a Leucine rich repeat domain and a NACHT domain) CARD domain (residues 1-87) (domain or fragment, UniProt Q9NPP4 1-87)
chain: MNFIKDNSRALIQRMGMTVIKQITDDLFVWNVLNREEVNIICCEKVEQDAARGIIHMILKKGSESCNLFLKSLKEWNYPLFQDLNGQ
binds: [13]

B4: NAC (apoptotic protein containing a nucleotide binding domain and a CARD domain) CARD domain (residues 1373-1473) (domain or fragment, UniProt Q9C000 1373-1473)
chain: LDAPQLLHFVDQYREQLIARVTSVEVVLDKLHGQVLSQEQYERVLAENTRPSQMRKLFSLSQSWDRKCKDGLYQALKETHPHLIMELWEKGSKKGLLPLSS
binds: [14] | [15] | [16] | [17] | [13] | [8] | [18] | [19]
